Source: the supplement of paper PMC10849652
The other results are listed elsewhere or left out.

By UniProt entry, the sequences of proteins in these tests, tags left out. Where a name states a change or a piece, a line headed by the entry shows the natural chain unless it says otherwise.
UniProt Q8N9N7: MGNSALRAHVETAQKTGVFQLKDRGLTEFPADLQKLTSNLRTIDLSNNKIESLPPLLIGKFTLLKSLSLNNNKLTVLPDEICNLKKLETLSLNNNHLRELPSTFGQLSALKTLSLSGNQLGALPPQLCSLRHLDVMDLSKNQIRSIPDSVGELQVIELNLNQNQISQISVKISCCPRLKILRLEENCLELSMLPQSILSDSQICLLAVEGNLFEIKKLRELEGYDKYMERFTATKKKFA
UniProt O95202: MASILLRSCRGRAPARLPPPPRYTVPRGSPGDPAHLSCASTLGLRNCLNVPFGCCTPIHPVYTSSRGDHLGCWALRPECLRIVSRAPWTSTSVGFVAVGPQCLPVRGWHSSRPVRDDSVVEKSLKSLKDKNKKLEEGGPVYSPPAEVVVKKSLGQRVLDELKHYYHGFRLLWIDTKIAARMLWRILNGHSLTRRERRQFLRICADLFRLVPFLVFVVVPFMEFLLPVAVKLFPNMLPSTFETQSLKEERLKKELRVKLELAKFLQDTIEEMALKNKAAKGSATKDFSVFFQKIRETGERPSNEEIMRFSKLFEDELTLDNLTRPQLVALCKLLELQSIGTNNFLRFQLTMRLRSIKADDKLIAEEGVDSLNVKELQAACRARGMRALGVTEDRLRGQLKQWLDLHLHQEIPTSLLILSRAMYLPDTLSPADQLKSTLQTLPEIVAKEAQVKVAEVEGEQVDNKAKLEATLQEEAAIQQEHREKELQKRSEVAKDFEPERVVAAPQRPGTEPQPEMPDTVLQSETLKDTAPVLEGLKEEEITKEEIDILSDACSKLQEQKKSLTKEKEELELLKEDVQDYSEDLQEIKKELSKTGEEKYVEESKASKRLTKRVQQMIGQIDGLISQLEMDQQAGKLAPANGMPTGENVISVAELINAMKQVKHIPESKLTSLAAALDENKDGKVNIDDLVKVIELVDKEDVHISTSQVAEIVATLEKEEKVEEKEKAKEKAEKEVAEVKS
UniProt Q9Y608: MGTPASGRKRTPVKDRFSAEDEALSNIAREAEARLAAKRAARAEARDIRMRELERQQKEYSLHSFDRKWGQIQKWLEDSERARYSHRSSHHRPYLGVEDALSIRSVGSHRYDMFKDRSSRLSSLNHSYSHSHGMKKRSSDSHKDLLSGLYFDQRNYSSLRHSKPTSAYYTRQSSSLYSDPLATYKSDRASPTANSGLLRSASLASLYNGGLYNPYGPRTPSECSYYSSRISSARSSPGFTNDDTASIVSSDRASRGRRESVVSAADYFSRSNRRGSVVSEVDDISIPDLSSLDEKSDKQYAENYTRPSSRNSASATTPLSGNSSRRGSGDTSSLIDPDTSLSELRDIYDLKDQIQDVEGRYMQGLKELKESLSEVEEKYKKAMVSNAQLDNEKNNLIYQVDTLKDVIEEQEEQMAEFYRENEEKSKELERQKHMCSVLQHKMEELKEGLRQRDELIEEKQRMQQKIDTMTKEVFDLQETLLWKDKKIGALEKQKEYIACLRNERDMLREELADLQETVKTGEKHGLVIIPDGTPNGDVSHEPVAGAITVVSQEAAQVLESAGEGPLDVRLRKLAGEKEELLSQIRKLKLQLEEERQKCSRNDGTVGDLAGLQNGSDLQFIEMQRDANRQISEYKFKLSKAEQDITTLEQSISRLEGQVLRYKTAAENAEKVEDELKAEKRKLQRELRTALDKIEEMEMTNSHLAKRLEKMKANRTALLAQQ
UniProt O00214: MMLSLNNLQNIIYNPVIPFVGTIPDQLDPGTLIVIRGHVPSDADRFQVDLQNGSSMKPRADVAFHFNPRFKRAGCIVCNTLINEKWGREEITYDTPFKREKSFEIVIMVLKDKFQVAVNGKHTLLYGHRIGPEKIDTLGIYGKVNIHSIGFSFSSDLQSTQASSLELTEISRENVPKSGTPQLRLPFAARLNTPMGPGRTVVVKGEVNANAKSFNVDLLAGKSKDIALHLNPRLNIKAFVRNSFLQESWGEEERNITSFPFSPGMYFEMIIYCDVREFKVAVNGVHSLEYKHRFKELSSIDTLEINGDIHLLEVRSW
UniProt P30533, whole entry, looked up: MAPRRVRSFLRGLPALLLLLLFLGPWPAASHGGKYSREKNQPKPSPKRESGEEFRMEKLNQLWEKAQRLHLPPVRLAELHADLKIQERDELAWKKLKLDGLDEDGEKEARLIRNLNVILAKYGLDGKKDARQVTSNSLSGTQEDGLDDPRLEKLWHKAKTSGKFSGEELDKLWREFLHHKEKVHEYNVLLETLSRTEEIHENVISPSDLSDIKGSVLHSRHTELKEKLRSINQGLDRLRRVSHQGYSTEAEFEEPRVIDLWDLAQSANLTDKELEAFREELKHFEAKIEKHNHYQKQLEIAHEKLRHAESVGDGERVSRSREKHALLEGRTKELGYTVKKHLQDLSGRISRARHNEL
UniProt Q9C0E8: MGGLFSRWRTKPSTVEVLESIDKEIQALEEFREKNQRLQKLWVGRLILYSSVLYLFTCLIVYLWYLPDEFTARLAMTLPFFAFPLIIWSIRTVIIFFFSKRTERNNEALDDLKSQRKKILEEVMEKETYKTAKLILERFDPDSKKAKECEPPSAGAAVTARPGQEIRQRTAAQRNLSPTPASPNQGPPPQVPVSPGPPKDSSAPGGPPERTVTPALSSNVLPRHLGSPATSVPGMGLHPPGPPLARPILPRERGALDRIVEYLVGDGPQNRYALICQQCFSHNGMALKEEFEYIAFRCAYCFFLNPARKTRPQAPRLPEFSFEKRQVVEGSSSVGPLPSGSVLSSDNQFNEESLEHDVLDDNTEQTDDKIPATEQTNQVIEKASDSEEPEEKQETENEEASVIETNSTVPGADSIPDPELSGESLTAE
UniProt Q8TCA0: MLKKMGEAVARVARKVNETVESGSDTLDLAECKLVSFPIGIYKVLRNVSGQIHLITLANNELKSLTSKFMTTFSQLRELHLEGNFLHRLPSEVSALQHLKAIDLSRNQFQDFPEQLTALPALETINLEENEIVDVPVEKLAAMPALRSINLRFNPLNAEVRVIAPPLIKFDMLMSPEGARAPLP
UniProt Q9UIC8: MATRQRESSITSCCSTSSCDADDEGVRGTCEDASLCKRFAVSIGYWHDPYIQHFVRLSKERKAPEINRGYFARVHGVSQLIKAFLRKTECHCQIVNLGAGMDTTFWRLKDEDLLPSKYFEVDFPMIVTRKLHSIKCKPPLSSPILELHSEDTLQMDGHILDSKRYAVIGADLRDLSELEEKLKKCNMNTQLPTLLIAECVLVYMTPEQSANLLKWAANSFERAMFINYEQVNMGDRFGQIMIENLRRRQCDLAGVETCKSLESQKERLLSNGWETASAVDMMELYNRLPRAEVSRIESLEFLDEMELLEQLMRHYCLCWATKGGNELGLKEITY

Key:
Assay in all cases: log2 fold change, soluble protein after heating vs DMSO (PISA); higher = thermal stabilisation; K562 lysate, 10 uM; active = over 0.2 and 3.5 SD of the protein, either way, in both replicates (recomputed)
[1] = compound: CN1CC[C@H](c2c(O)cc(O)c3c(=O)cc(-c4ccccc4Cl)oc23)[C@H](O)C1 [alvocidib]
Procedure, shortened: (§1)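 Pellets of K562 cells were dounce-homogenised in PBS pH 7.4 with 1 mM MgCl2, and the crude extract was held at 1 mg/mL protein for a 30 min treatment with 10 μM compound. Aliquots were heated for 3 min over 48°C-58°C and pooled before NP-40 was added to 0.5% at 4°C. The supernatant from 21,000xg for 90 min was quantified by TMTpro 16plex LC-MS/MS with channel sums equalised. Values are reported from duplicates as log-two fold change in thermal stability relative to solvent controls.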

[2] = compound: CN1CCc2c(c3ccccc3n2Cc2ccc(C(=O)NO)cc2)C1 [Tubastatin A]
Procedure, shortened: as §1

[3] = compound: CNC(=O)C1=CC=CC=C1NC2=NC(=NC=C2Cl)NC3=C(C=C(C=C3)N4CCOCC4)OC
Procedure, shortened: as §1

[4] = compound: CNC(=O)c1ccc(Nc2ncc(C(F)(F)F)c(NCc3nccnc3N(C)S(C)(=O)=O)n2)cc1 [defactinib]
Procedure, shortened: as §1

[5] = compound: CNc1nc(-c2ccc3c(N)n[nH]c3c2)cc(N2C[C@@H](C(=O)NC3CCCCC3)CC[C@H]2C)n1
Procedure, shortened: as §1

[6] = compound: COC(=O)N[C@@H](C)CNc1nccc(-c2cn(C(C)C)nc2-c2cc(Cl)cc(NS(C)(=O)=O)c2F)n1 [encorafenib]
Procedure, shortened: as §1

[7] = compound: COC(=O)[C@H](CCSC)NC(=O)C1=C(C=C(C=C1)NC[C@H](CS)N)C2=CC=CC=C2
Procedure, shortened: as §1

[8] = compound: COc1cc(Nc2ncc3c(n2)-c2ccc(Cl)cc2C(c2c(F)cccc2OC)=NC3)ccc1C(=O)O [alisertib]
Procedure, shortened: as §1

[9] = compound: COc1cc2nc(-c3cc(F)ccc3O)nc(N[C@@H]3CNC[C@H]3C(C)(C)O)c2cc1OC
Procedure, shortened: as §1

[10] = compound: COc1cc2ncnc(Nc3ccc(F)c(Cl)c3)c2cc1OCCCN1CCOCC1 [gefitinib]
Procedure, shortened: as §1

[11] = compound: CS(=O)(=O)CCNCc1ccc(-c2ccc3ncnc(Nc4ccc(OCc5cccc(F)c5)c(Cl)c4)c3c2)o1 [lapatinib]
Procedure, shortened: as §1

[12] = compound: CS(=O)(=O)N1CCN(Cc2cc3nc(-c4cccc5[nH]ncc45)nc(N4CCOCC4)c3s2)CC1 [pictilisib]
Procedure, shortened: as §1

[13] = compound: C[C@@H](Oc1cc(-c2cnn(C3CCNCC3)c2)cnc1N)c1c(Cl)ccc(F)c1Cl [crizotinib]
Procedure, shortened: as §1

[14] = compound: C[C@H](C1=CC=C(C=C1)C(=O)NC2=C3C=CNC3=NC=C2)N
Procedure, shortened: as §1

[15] = compound: C[C@H](Nc1ncnc2nc[nH]c12)c1cc2cccc(Cl)c2c(=O)n1-c1ccccc1 [duvelisib]
Procedure, shortened: as §1

[16] = compound: Cc1cc(Nc2cc(CN3CCOCC3)c3nc(C)c(Cc4ccc(Cl)cc4F)n3n2)n[nH]1 [gandotinib]
Procedure, shortened: as §1

[17] = compound: Cc1cc(Nc2cc(N3CCN(C)CC3)nc(Sc3ccc(NC(=O)C4CC4)cc3)n2)n[nH]1 [tozasertib]
Procedure, shortened: as §1

[18] = compound: Cc1ccc(-n2nc(C(C)(C)C)cc2NC(=O)Nc2ccc(OCCN3CCOCC3)c3ccccc23)cc1 [doramapimod]
Procedure, shortened: as §1

[19] = compound: Cc1ccc(NC(=O)c2ccc(CN3CC[C@H](N(C)C)C3)c(C(F)(F)F)c2)cc1Nc1nccc(-c2cncnc2)n1 [bafetinib]
Procedure, shortened: as §1

[20] = compound: Cc1cccc(CC(=O)N2CCc3c2ccc(-c2cn(C)c4ncnc(N)c24)c3F)n1
Procedure, shortened: as §1

Measured: log2 fold change

LRRC57 (UniProt Q8N9N7)
inactive: [1] -0.029 | [2] 0.032 | [3] 0.014 | [4] -0.027 | [5] 0.025 | [6] 0.066 | [7] -0.063 | [8] -0.007 | [9] 0.018 | [10] 0.019 | [11] 0.007 | [12] -0.002 | [13] 0.034 | [14] -0.016 | [15] -0.007 | [16] 0.037 | [17] 0.01 | [18] 0.053 | [19] 0.028 | [20] 0.057

LETM1 (UniProt O95202)
inactive: [1] -0.046 | [2] -0.033 | [3] 0.018 | [4] -0.007 | [5] -0.027 | [6] -0.001 | [7] -0.018 | [8] -0.022 | [9] -0.166 | [10] -0.04 | [11] -0.001 | [12] 0.004 | [13] -0.043 | [14] 0.015 | [15] -0.018 | [16] 0.03 | [17] 0.005 | [18] -0.01 | [19] -0.049 | [20] -0.085

LRRFIP2 (UniProt Q9Y608)
inactive: [1] -0.033 | [2] 0.009 | [3] -0.031 | [4] -0.009 | [5] 0.004 | [6] 0.009 | [7] -0.027 | [8] -0.015 | [9] 0.001 | [10] 0.015 | [11] 0.003 | [12] -0.009 | [13] 0.041 | [14] 0.048 | [15] 0.015 | [16] 0.018 | [17] 0.002 | [18] -0.024 | [19] 0.045 | [20] -0.035

LGALS8 isoform 2 (UniProt O00214)
inactive: [1] 0.005 | [2] 0.029 | [3] 0.013 | [4] -0.018 | [5] -0.039 | [6] 0.046 | [7] -0.037 | [8] -0.009 | [9] 0.051 | [10] -0.015 | [11] 0.01 | [12] 0.137 | [13] -0.033 | [14] -0.017 | [15] -0.013 | [16] -0.025 | [17] 0 | [18] -0.001 | [19] -0.019 | [20] -0.004

LRPAP1 (UniProt P30533)
inactive: [1] 0.022 | [2] 0.011 | [3] -0.014 | [4] -0.004 | [5] -0.054 | [6] 0.017 | [7] -0.077 | [8] -0.019 | [9] 0.022 | [10] 0.011 | [11] 0.005 | [12] 0.039 | [13] 0.101 | [14] 0.066 | [15] 0.03 | [16] -0.019 | [17] 0.006 | [18] -0.029 | [19] 0.053 | [20] -0.055

LNPK (UniProt Q9C0E8)
inactive: [1] -0.061 | [2] 0.01 | [3] 0.007 | [4] -0.011 | [5] -0.012 | [6] 0.017 | [7] -0.071 | [8] -0.013 | [9] 0.011 | [10] 0.052 | [11] -0.033 | [12] 0.021 | [13] 0.005 | [14] -0.137 | [15] 0.061 | [16] 0.029 | [17] 0.013 | [18] -0.047 | [19] -0.024 | [20] 0.091

LRRC20 (UniProt Q8TCA0)
inactive: [1] 0.035 | [2] -0.006 | [3] 0.041 | [4] 0.047 | [5] 0.005 | [6] -0.012 | [7] -0.057 | [8] 0.047 | [9] -0.018 | [10] -0.126 | [11] 0.03 | [12] 0.09 | [13] -0.026 | [14] 0.032 | [15] 0.016 | [16] -0.082 | [17] -0.046 | [18] 0.08 | [19] -0.078 | [20] -0.068

LCMT1 (UniProt Q9UIC8)
inactive: [1] 0.011 | [2] 0.005 | [3] -0.012 | [4] -0.006 | [5] -0.027 | [6] 0.009 | [7] -0.028 | [8] -0.011 | [9] 0 | [10] 0.053 | [11] -0.008 | [12] -0.013 | [13] 0.004 | [14] 0.051 | [15] -0.017 | [16] -0.039 | [17] 0.022 | [18] -0.015 | [19] -0.025 | [20] -0.023
